# Data as given in the supplement of paper PMC10689618.
# Counter-ions that a name gives are not always drawn. The list shows a part of the results. Repeats are few or missing, and single values can be far off.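 Labelled rat cortical synaptosomes were engulfed by primary human fetal astrocytes. Engulfment equaled a red/green ratio, corrected for calcein live-cell signal and normalized to the plate median. Compounds were toxic when calcein dropped over 30%, and reduced phagocytosis when below 70% of the median above 5 µM.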
# Tests used:
# Conditions in all cases: 24 h
# Human fetal astrocytes [1] = assay: loss of total cells relative to no-compound high-control median (toxicity); higher = more toxic (fewer cells)
# Human fetal astrocytes [2] = assay: synaptosome phagocytosis (pHrodo/calcein intensity ratio) relative to plate median of data wells; higher = more phagocytosis
# Human fetal astrocytes [3] = assay: loss of total cells relative to no-compound high-control median (toxicity); higher = more toxic (fewer cells); remark: listed apart in the source
Structure (SMILES),loss of total cells (Human fetal astrocytes [1]; 1.39 µM) [%],loss of total cells (Human fetal astrocytes [1]; 2.78 µM) [%],loss of total cells (Human fetal astrocytes [1]; 5.56 µM) [%],loss of total cells (Human fetal astrocytes [1]; 11.11 µM) [%],loss of total cells (Human fetal astrocytes [1]; 22.22 µM) [%],synaptosome phagocytosis (Human fetal astrocytes [2]; 1.39 µM) [%],synaptosome phagocytosis (Human fetal astrocytes [2]; 2.78 µM) [%],synaptosome phagocytosis (Human fetal astrocytes [2]; 5.56 µM) [%],synaptosome phagocytosis (Human fetal astrocytes [2]; 11.11 µM) [%],synaptosome phagocytosis (Human fetal astrocytes [2]; 22.22 µM) [%],loss of total cells (Human fetal astrocytes [3]; 1.39 µM) [%],loss of total cells (Human fetal astrocytes [3]; 2.78 µM) [%],loss of total cells (Human fetal astrocytes [3]; 5.56 µM) [%],loss of total cells (Human fetal astrocytes [3]; 11.11 µM) [%],loss of total cells (Human fetal astrocytes [3]; 22.22 µM) [%]
"CCCC[N+]1(C)[C@@H]2C[C@@H](OC(=O)[C@H](CO)c3ccccc3)C[C@H]1[C@@H]1O[C@@H]12 (single isomer, unassigned; (-)) [(-)-Scopolamine,n-Butyl-, bromide]",5.3,-23.7,-11.2,-21.1,-28.8,109,111,87,95.4,105,–,–,–,–,–
CCOC(=O)c1ncn2c1[C@@H]1CCCN1C(=O)c1cc(OC)ccc1-2,-24.2,-20.4,3.3,-15.2,-10.3,74.2,79.1,114,98.8,95.6,–,–,–,–,–
COc1ccc2c(c[n+](C)c3c4cc5c(cc4ccc23)OCO5)c1OC [Chelerythrine chloride],-9.9,-4.2,-36.4,9.4,50.8,106,97.6,78,44.3,2.8,–,–,–,–,–
COc1cc([C@@H]2c3cc4c(cc3[C@H](O)[C@H]3COC(=O)[C@H]23)OCO4)cc(OC)c1OC [Podophyllotoxin],0.5,-2.3,-0.5,-9.5,15.9,66.3,103,91.3,71.7,103,–,–,–,–,–
CC(=O)[C@H]1CC[C@H]2[C@@H]3CC[C@H]4C[C@H](O)CC[C@]4(C)[C@H]3CC[C@]12C [5alpha-Pregnan-3alpha-ol-20-one],0.3,-27.8,17.4,24.1,-27.2,86.1,110,106,125,86.3,–,–,–,–,–
CC(C)(C)c1cc(C=C(C#N)C#N)cc(C(C)(C)C)c1O [Tyrphostin A9],-17.7,-10.5,1.7,53.3,32.9,109,96,79.8,45.4,35.8,–,–,–,–,–
COC[C@H]1OC(=O)c2coc3c2[C@@]1(C)C1=C(C3=O)[C@@H]2CCC(=O)[C@@]2(C)C[C@H]1OC(C)=O [Wortmannin from Penicillium funiculosum],-4,-24.9,1.1,-5,-19.8,64.8,65.5,88.5,79.7,71.5,–,–,–,–,–
CCCN1CC[C@@H]2c3cc(O)ccc3CC[C@@H]21 (racemic) [cis(+/-)-8-OH-PBZI hydrobromide],-24.2,-7.7,20.2,19,0,104,78.2,98.6,105,80.8,–,–,–,–,–
CCN(CC)C(=O)NC1C=C2c3cccc4[nH]cc(c34)CC2N(C)C1 (stereo not drawn) [S-(-)-Lisuride],-5.2,-0.5,11.7,20,-7.5,122,77.8,115,110,88.4,–,–,–,–,–
Cc1nnc2ccc(-c3cccc(C(F)(F)F)c3)nn12,1.4,5.9,25.8,4.8,29.9,105,97.6,83.5,135,117,–,–,–,–,–
"C[C@]12CC[C@@H](O)C[C@@H]1CC[C@@H]1[C@@H]2CC[C@]2(C)[C@@H](O)CC[C@@H]12 [5alpha-Androstane-3alpha,17beta-diol]",-4,-5.1,-5.1,11.2,-4.1,93.9,141,142,107,99.8,–,–,–,–,–
NNC(=O)c1ccc(O)cc1 [4-Hydroxybenzhydrazide],-15.5,-13.7,-20.6,-23.8,-17.6,89.5,112,86.9,107,118,–,–,–,–,–
COc1ccc2c(c1)[C@]13CCCC[C@@H]1[C@H](C2)N(C)CC3 [Dextromethorphan hydrobromide monohydrate],2.1,-4.3,-2.5,3.1,10.4,104,69.7,90.9,89.7,72.3,–,–,–,–,–
NC(=O)COc1c(F)cc(SCCNS(=O)(=O)c2ccccc2)cc1F,1.4,-4.1,3.3,11.4,10.3,66,88.8,91.5,104,76.6,–,–,–,–,–
CCCCCCCCC(=O)NCc1ccc(O)c(OC)c1 [N-Vanillylnonanamide],-5.9,-9.3,-16.3,5,-9.9,108,102,96.7,99,114,–,–,–,–,–
O=C1CCCN1CC#CCN1CCCC1 [Oxotremorine sesquifumarate salt],-4.3,14.9,3.3,31.4,8.4,117,126,113,129,102,–,–,–,–,–
Cc1[nH]c2ccc(O)cc2c1CCN [2-Methyl-5-hydroxytryptamine maleate],-0.5,19.5,5.2,1.9,2.8,97.6,112,111,145,141,–,–,–,–,–
C=CCc1ccccc1OCC(O)CNC1(C)CCC(C(C)(C)NC(=O)CBr)CC1 (stereo not given) [Bromoacetyl alprenolol menthane],-26.1,-23.5,-7.8,35.4,78.6,81.1,101,80.3,24.1,28.2,–,–,–,–,–
COc1ccc2[nH]cc(CCN)c2c1 [O-Methylserotonin hydrochloride],-25.1,0.5,10.8,19,3.7,94.1,65.2,105,124,81.4,–,–,–,–,–
CN1CCc2cccc(Cl)c2CC1,-12.7,-17.1,-6.7,-11.9,-18.9,113,96.5,88,94.5,112,–,–,–,–,–
C=CCN1C[C@H](C)N([C@H](c2ccc(C(=O)N(CC)CC)cc2)c2cccc(OC)c2)C[C@H]1C,-4,-9.3,11.2,-0.4,-7.4,98.8,89.1,89.1,86.9,79.1,–,–,–,–,–
C[C@]12CC[C@@H](O)C[C@@H]1CC[C@@H]1[C@@H]2CC[C@]2(C)C(=O)CC[C@@H]12 [Androsterone],11.4,3,4.1,-6.7,-25.9,89.2,92.8,93,107,68.2,–,–,–,–,–

Structure (SMILES),loss of total cells (Human fetal astrocytes [1]; 1.39 µM) [%],loss of total cells (Human fetal astrocytes [1]; 2.78 µM) [%],loss of total cells (Human fetal astrocytes [1]; 5.56 µM) [%],loss of total cells (Human fetal astrocytes [1]; 11.11 µM) [%],loss of total cells (Human fetal astrocytes [1]; 22.22 µM) [%],synaptosome phagocytosis (Human fetal astrocytes [2]; 1.39 µM) [%],synaptosome phagocytosis (Human fetal astrocytes [2]; 2.78 µM) [%],synaptosome phagocytosis (Human fetal astrocytes [2]; 5.56 µM) [%],synaptosome phagocytosis (Human fetal astrocytes [2]; 11.11 µM) [%],synaptosome phagocytosis (Human fetal astrocytes [2]; 22.22 µM) [%],loss of total cells (Human fetal astrocytes [3]; 1.39 µM) [%],loss of total cells (Human fetal astrocytes [3]; 2.78 µM) [%],loss of total cells (Human fetal astrocytes [3]; 5.56 µM) [%],loss of total cells (Human fetal astrocytes [3]; 11.11 µM) [%],loss of total cells (Human fetal astrocytes [3]; 22.22 µM) [%]
CNCCc1ccc(O)c(O)c1 [N-Methyldopamine hydrochloride],-2.1,-5.1,-14,-1.3,18.4,109,94.8,91.8,86,74.5,–,–,–,–,–
CCCN1CCC[C@@H](c2cccc(O)c2)C1 [S(-)-3PPP hydrochloride],-17.1,-21.3,-9,-8,-28.8,90.6,109,106,134,130,–,–,–,–,–
CNCCc1c[nH]c2ccc(O)cc12 [N-omega-Methyl-5-hydroxytryptamine oxalate salt],-10.9,2.3,12.7,0,15.9,95.1,146,158,123,106,–,–,–,–,–
C=C(C)[C@@H]1[C@H]2OC(=O)[C@@H]1[C@]1(O)C[C@H]3O[C@]34C(=O)O[C@H]2[C@]14C,–,–,–,–,–,–,–,–,–,–,6.9,18.4,6.5,11.3,17.4
CCn1cnc2c(Nc3cccc(Cl)c3)nc(N[C@@H]3CCCC[C@@H]3N)nc21,4,2.4,-9.7,39.9,25.2,98.3,95,58.4,30.3,20.1,–,–,–,–,–
NCCc1ccc(S(=O)(=O)F)cc1 [4-(2-Aminoethyl)benzenesulfonyl fluoride hydrochloride],-6.6,-9.3,-26.3,0.4,-5.6,102,125,82.1,112,119,–,–,–,–,–
CCCCCCC(C)(C)c1ccc([C@@H]2C[C@H](O)CC[C@H]2CCCO)c(O)c1,-13.9,-13.5,-12.4,-5.8,10.2,116,73.9,118,107,66.9,–,–,–,–,–
C=C(C)[C@@H]1[C@H]2OC(=O)[C@@H]1[C@]1(O)C[C@H]3OC34C(=O)O[C@H]2[C@@]41C.CC(C)(O)[C@@H]1[C@H]2OC(=O)[C@@H]1[C@]1(O)C[C@H]3OC34C(=O)O[C@H]2[C@@]41C (stereo not given in full) [Picrotoxin],-10.9,-5,-2.3,13.3,-1.9,–,–,–,–,–,–,–,–,–,–
CP(=O)(O)C1=CCNCC1,-10.2,-23.1,-20.2,-14.9,-29.6,110,88.8,102,85.2,106,–,–,–,–,–
c1ccc2sc(C3(N4CCCCC4)CCCCC3)cc2c1 [BTCP hydrochloride],-21.7,-13.8,-16.1,-15.7,3.4,90.3,94.8,86,71.7,80.2,–,–,–,–,–
"CC(=O)[C@H]1CC[C@H]2[C@@H]3CC[C@H]4C[C@H](O)CC[C@]4(C)[C@H]3C(=O)C[C@]12C [5alpha-Pregnan-3alpha-ol-11,20-dione]",-6.2,-5,1.4,-1.9,-1.9,126,98.2,122,108,147,–,–,–,–,–
CC(C)NP(=O)(NC(C)C)OP(=O)(NC(C)C)NC(C)C [Tetraisopropyl pyrophosphoramide],-19.6,-7.5,-3.4,-11.9,-1.6,98,122,111,104,102,–,–,–,–,–
C#CCN(C)[C@H](C)Cc1ccccc1 [R-(-)-Deprenyl hydrochloride],-17.5,18.6,16.4,-6.7,27.1,118,116,127,109,117,–,–,–,–,–
CC[C@@]1(O)C[C@H](O[C@H]2C[C@H](N(C)C)[C@H](O)[C@H](C)O2)c2c(cc3c(c2O)C(=O)c2c(O)ccc(O)c2C3=O)[C@H]1C(=O)OC,–,–,–,–,–,–,–,–,–,–,14.1,10,43.5,8.4,26.3
O=C(O)c1cc[c]([Hg][Cl])cc1 [4-Chloromercuribenzoic acid],-4.4,-10.2,-29,-7.6,4.9,111,116,128,117,107,–,–,–,–,–
N=C(N)NN [Aminoguanidine hydrochloride],-8.4,-12.9,-3.2,-15.7,13.9,124,95.9,69.1,107,111,–,–,–,–,–
CCCN(CCC)C1CCc2cccc(O)c2C1 (racemic) [(±)-8-Hydroxy-DPAT hydrobromide],-1.3,-7.7,7.4,-22,-1.6,132,110,72,121,124,–,–,–,–,–
"CCCN1CCc2cc(O)cc3c2[C@H]1Cc1ccc(O)c(O)c1-3 [R(-)-2,10,11-Trihydroxy-N-propylnoraporphine hydrobromide]",13,-5.1,4.9,4,20.8,95.4,79.3,76.3,76.3,53.8,–,–,–,–,–
Cc1c2ccncc2c(C)c2c1[nH]c1ccccc12 [Ellipticine],-10.5,-16.2,2.5,-0.4,-8,57.7,46.7,45.3,31.7,44.5,–,–,–,–,–
N[C@@H](Cn1cc(I)c(=O)[nH]c1=O)C(=O)O [S-5-Iodowillardiine],-22.7,-9.9,-16.9,1.1,-35.4,84.6,110,102,97.7,124,–,–,–,–,–
C[N+](C)(C)CC#CCOC(=O)Nc1cccc(Cl)c1,-21.7,-13.2,-23.5,-25.6,14.7,101,86.9,87.8,94.3,104,–,–,–,–,–
COc1ccc2c(c1O)-c1cccc3c1[C@@H](C2)N(C)CC3 [R(-)-Apocodeine hydrochloride],12.1,-10.3,1.6,-29.1,-8.8,111,105,122,135,96.5,–,–,–,–,–

# Full records, looked up by structure. Values in the order: loss of total cells (Human fetal astrocytes [1]; 1.39 µM) [%] | loss of total cells (Human fetal astrocytes [1]; 2.78 µM) [%] | loss of total cells (Human fetal astrocytes [1]; 5.56 µM) [%] | loss of total cells (Human fetal astrocytes [1]; 11.11 µM) [%] | loss of total cells (Human fetal astrocytes [1]; 22.22 µM) [%] | synaptosome phagocytosis (Human fetal astrocytes [2]; 1.39 µM) [%] | synaptosome phagocytosis (Human fetal astrocytes [2]; 2.78 µM) [%] | synaptosome phagocytosis (Human fetal astrocytes [2]; 5.56 µM) [%] | synaptosome phagocytosis (Human fetal astrocytes [2]; 11.11 µM) [%] | synaptosome phagocytosis (Human fetal astrocytes [2]; 22.22 µM) [%] | loss of total cells (Human fetal astrocytes [3]; 1.39 µM) [%] | loss of total cells (Human fetal astrocytes [3]; 2.78 µM) [%] | loss of total cells (Human fetal astrocytes [3]; 5.56 µM) [%] | loss of total cells (Human fetal astrocytes [3]; 11.11 µM) [%] | loss of total cells (Human fetal astrocytes [3]; 22.22 µM) [%]
# CCCN1CCc2cc(O)cc3c2[C@H]1Cc1ccc(O)c(O)c1-3 [R(-)-2,10,11-Trihydroxy-N-propylnoraporphine hydrobromide] is listed as 13 | -5.1 | 4.9 | 4 | 20.8 | 95.4 | 79.3 | 76.3 | 76.3 | 53.8 | – | – | – | – | –
# C[N+](C)(C)CC#CCOC(=O)Nc1cccc(Cl)c1 is listed as -21.7 | -13.2 | -23.5 | -25.6 | 14.7 | 101 | 86.9 | 87.8 | 94.3 | 104 | – | – | – | – | –
